Whole data set: some 33,000 sequences, median “E-score (-0.5 to 0.5)” near -0.0059, cut for the highest 2% near 0.26. The list shows a part of the results.
target: T1, Cin5 (UniProt P40917); assay: PBM E-score (8-mer binding enrichment) (E-score (-0.5 to 0.5)); higher = stronger / more preferred TF binding; conditions: protein concentration: 100 nM; construct: GST-full length
T1 sequence: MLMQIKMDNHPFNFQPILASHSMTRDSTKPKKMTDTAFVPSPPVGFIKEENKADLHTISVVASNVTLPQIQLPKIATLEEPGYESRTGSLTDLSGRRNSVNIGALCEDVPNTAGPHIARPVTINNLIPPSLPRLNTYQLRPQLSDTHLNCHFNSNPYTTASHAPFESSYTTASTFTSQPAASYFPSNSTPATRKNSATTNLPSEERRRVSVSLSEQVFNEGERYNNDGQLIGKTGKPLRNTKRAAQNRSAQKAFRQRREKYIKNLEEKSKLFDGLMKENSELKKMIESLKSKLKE
In short: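 Masliner-normalised scans of fluorescent anti-GST signal were the basis for scoring. That signal came from GST-tagged yeast transcription factors applied at about 100-200 nM to double-stranded universal all-10-mer Agilent arrays on fresh or once-stripped slides. Each ungapped eight-base word, pooled with its reverse complement, received an E-score from the Universal PBM Analysis Suite.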

Sequence | PBM E-score
ACTGGGAG | -0.0689
CGATCAAG | -0.0749
AGTTACTA | 0.0688
GACTAGGA | -0.0728
CTGGCCTA | -0.097
GAGCAACA | -0.148
CACGGCTA | -0.154
AACTATCG | 0.0548
GCGAGATA | 0.0992
TCGGACCA | -0.084
CTATGACC | -0.102
ACGAGAGC | -0.028
AGGGCTAA | -0.113
ACTAGCTA | 0.0677
CCTTTCGA | -0.125
GCGCTTTA | 0.0372
CGCTTCAA | -0.1
AGTTCTTC | -0.0185
ACTACACG | 0.137
ATCTTTTG | -0.0757
GATACCCA | 0.0476
AACGCTCC | -0.123

Sequence | PBM E-score
GACCCACC | 0.00764
AAAGTGAT | -0.00439
CAATCTGG | 0.0546
CACATTAA | 0.102
TAGATCAA | 0.0289
GCACGATA | 0.105
AAAGCGTA | -0.0195
ACTAAAGC | 0.017
GCATGTAA | 0.057
AGCCTGAC | -0.191
ACCTCTCT | -0.0644
ATCAGGCA | 0.0396
AAACAGCC | -0.0263
GCTACGAA | 0.00847
ATGATTGG | 0.101
ACTCATCC | 0.0731
CATACCTC | -0.0152
ACGTCTAT | -0.0448
CGTCCGGA | 0.00776
CCTGGGCA | -0.326
ATTAAGCG | 0.211
CACGTATA | 0.0182

Sequence | PBM E-score
TAACCTCA | -0.104
AAATCTGA | 0.129
AGCTATGA | -0.0157
CATCGGAC | -0.221
GCGGTGAA | 0.0275
GGCAAACC | -0.234
AGCGTTCA | -0.164
ACCATCCA | -0.13
CCATCAAG | -0.117
GGACTCCA | -0.206
AGAAAACG | 0.106
CCCCATGA | -0.0747
CCGACACA | -0.00708
AGGCCGCA | -0.133
ATTATATA | 0.333
CGATATCA | 0.11
CACCGTCC | -0.0439
AATCGCCG | 0.0625
GCCGGTGA | -0.0128
ACTGTTCA | -0.0363
TCGCTAAA | -0.0356
CACTCACA | 0.11

Sequence | PBM E-score
AGGTCCAT | 0.086
AAGCGACA | 0.219
CGCTTGAG | -0.114
AAGGTAGT | -0.00409
AACGCAGC | -0.0283
AGTAACGA | -0.0632
AGGAACTC | 0.0409
GACACATA | 0.0373
AGATAAAA | 0.251
AATTTCGT | 0.0584
ATCCTCAA | -0.159
ATTACGCG | 0.182
ACGTCATG | 0.228
CGGGTAAC | -0.0112
ACCAGCGA | -0.114
GCAATCGA | 0.0191
CAGCCGCA | -0.119
ACCTTTGA | -0.0878
CCATGTGA | -0.0756
CACCGGAA | 0.156
CTCGTTGA | -0.154
TCCAATCA | -0.102

Sequence | PBM E-score
AAATTAGA | 0.206
GAAAGTCC | -0.194
ATTGACAG | -0.0647
GAATTCAC | 0.0227
GTATCCAA | -0.0872
AGATTTTA | 0.00061
GGAGGACC | -0.238
TATTGGGA | 0.103
CCCGATTA | 0.254
CACCGATG | -0.204
AGGACTGC | -0.339
AGACTCAG | -0.013
GGTACTAC | 0.0413
CTTCGGGC | -0.215
CCACTAAG | 0.0954
AGTGGCAT | 0.00851
AGTAGCCC | -0.222
CGCAGTTC | -0.0956
GCGAAGCA | -0.123
AGGGATGG | 0.0501
GGGAAGAC | -0.205
TAGCTAAA | -0.0851

Quoted from the listing:
For PBM E-score, GGTACTAC shows 0.0413
For PBM E-score, AGGACTGC shows -0.339
For PBM E-score, ATTGACAG shows -0.0647
For PBM E-score, CCCGATTA shows 0.254

Reference: the supplement of paper PMC3334620
